From PubChem BioAssay AID504834 (National Center for Advancing Translational Sciences (NCATS), 2011)
Screen size: about 320,000 compounds; about 22,000 (6.9%) were called active. Inconclusive results, whose numbers are uncertain, are shown with a selection of clear calls. Calls follow the shape of the dose curve; as a rule, active = well fitted inhibition curve with a large enough effect; inconclusive = small, poorly fitted or top-dose-only effect, or another doubt; inactive = no such curve, though single readings can be large or run the other way. Potencies of inconclusive entries are doubtful fits and often do not repeat. A structure can be active in one record and inactive in another.

assay: Primary qHTS for delayed death inhibitors of the malarial parasite plastid, 96 hour incubation; details: P. falciparum luciferase reporter growth; series mostly up to 28.7 µM; activity change, negative = inhibition: at the top concentration
How it was run: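 Parasite growth measured via integrated firefly luciferase reporter in P. falciparum. Infected erythrocytes at 2% hematocrit, 0.05% parasitemia final were treated 96 hours at 37 C under 5% CO2, and luminescence was read.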
% is scaled to controls: 0 for no effect and ±100 for the full control effect; potency is read from the fitted curve at half-maximal effect.

Structure (SMILES) | Potency | activity change, negative = inhibition
Cc1ccc(O)c(C(=O)c2cnc3c(c2)COc2ccc(C)cc2-3)c1 | inconclusive: 14.7 µM [inhibitor, partial curve, poor fit] | 
COc1ccc(-c2nnn(CC(=O)NC3CCCc4ccccc43)n2)cc1OC (stereo not given) | inconclusive: 18.5 µM [inhibitor, partial curve, poor fit] | 
CCC(=O)Nc1c2c(nn1-c1ccc(C)cc1C)CSC2 |  | inactive: 0%
COC(CNC(=O)C1CCN(C(=O)c2cc3oc(C)cc3n2Cc2c(F)cccc2Cl)CC1)OC |  | inactive: -0.584%
Cc1ccc(NC(=S)NCc2ccc3[nH]c4c(c3c2)CCCC4)cc1 |  | inactive: -64.2%
CCc1nc2cccnc2n1-c1ccc(CC(=O)O)cc1 | active: 10.4 µM | 
COc1cc([N+](=O)[O-])cc2cc(C(=O)N3CCCC3)c(=O)oc12 | inconclusive: 2.94 µM [inhibitor, partial curve] | 
CC(=O)c1cccc(OCc2cc(C(=O)N(C)CCC3CCOCC3)no2)c1 |  | inactive: 4.42%
CC1CCCC(C)N1C(=O)Cn1c(SCC(=O)Nc2ccc3c(c2)OCO3)nc2ccccc21 (stereo not given) | active: 13.1 µM | 
CCOC(=O)c1c(C)[nH]c(C)c1C(=O)COC(=O)c1ccc(Cl)c(S(=O)(=O)NCc2ccccc2)c1 | inconclusive: 11.7 µM [inhibitor, single point] | 
CC(=O)NC(Cc1ccccc1C)C(=O)NC1CCN(C(=O)c2ccc(C)cc2)CC1 (stereo not given) | inconclusive: 11.7 µM [inhibitor, single point] | 
CCn1cc(C(=O)OC(C)C(=O)Nc2c(C)n(C)n(-c3ccccc3)c2=O)c(=O)c2ccc(C)nc21 (stereo not given) | inconclusive: 18.5 µM [inhibitor, single point] | 
Cc1ccc(C(C)(O)CS(=O)(=O)Cc2ccccc2Cl)cc1 (stereo not given) |  | inactive: 6.71%
CCCCOc1ccc(C2C(=O)N(C3CCCCC3)CC(=O)N2CC2CCCO2)cc1 (stereo not given) | inconclusive: 18.5 µM [inhibitor, single point] | 
Cc1ccccc1C(=O)c1cccn1CC(=O)NCc1ccc(Cl)cc1 |  | inactive: 44.5%
O=C(OCC(=O)c1ccc(Cl)cc1Cl)c1cnccn1 |  | inactive: 9.38%
CC(C)(C)c1ccccc1OCCOCCNCc1ccccc1 |  | inactive: 23%
COc1ccccc1CNC(=O)OCc1nccnc1C(=O)Nc1ccc(Br)cn1 |  | inactive: 1.7%
CN1[C@@H](CC(=O)c2ccccc2)CCC[C@H]1C[C@H](O)c1ccccc1 | active: 16.9 µM | 
CCOC(=O)c1cnn(-c2ccccc2)c1-n1cccc1C(=O)C(=O)Nc1ccc(OC)cc1 | inconclusive: 9.28 µM [inhibitor, single point] | 
CC(C)(C)c1ccc(OCc2ccc(C(=O)N/N=C/c3ccc(O)c(O)c3)cc2)cc1 | inconclusive: 18.5 µM [inhibitor, single point] | 
COc1ccc(OCCCC(=O)Nc2nccs2)cc1 | inconclusive: 18.5 µM [inhibitor, single point] | 
CC(=O)Nc1ccc(C2=NN(CC#N)C(=O)SC2)cc1 |  | inactive: 53.7%
COc1ccc(C(=O)CNc2ccccc2C#N)cc1 |  | inactive: -29%

Structure (SMILES) | Potency | activity change, negative = inhibition
O=C(CN1CCCc2ccccc21)Nc1cccc(S(=O)(=O)N2CCOCC2)c1 | inconclusive: 10.4 µM [inhibitor, single point] | 
O=C(Nc1cc(Cl)ccc1F)C1=COCCO1 |  | inactive: 106%
O=S(=O)(c1ccc2ccccc2c1)N1CCN(S(=O)(=O)N2CCOCC2)CC1 | inconclusive: 10.4 µM [inhibitor, partial curve, poor fit] | 
Oc1ccc(Cl)cc1C=Nc1ccc(Br)cc1 | inconclusive: 18.5 µM [inhibitor, single point] | 
COc1ccc(CCc2nnc(CCC(=O)NCc3cc(C(C)C)no3)o2)cc1 | inconclusive: 0.415 µM [inhibitor, full curve, poor fit] | 
Cc1ccc(-n2ncc3c(NCCCN4CCCC4=O)ncnc32)c(C)c1 | inconclusive: 7.38 µM [inhibitor, partial curve] | 
Cc1cc(O)c(C(C)C)cc1NC1=NS(=O)(=O)c2ccccc21 |  | inactive: 25.3%
O=C(CCl)N(CCCNC(=O)C(F)(F)F)c1ccc([N+](=O)[O-])cc1 | inconclusive: 18.5 µM [inhibitor, single point] | 
COc1cccc(/C=N/NC(=O)CSc2nnc(C)n2-c2ccccc2)c1OC | inconclusive: 2.08 µM [inhibitor, full curve, poor fit] | 
CCOC(=O)c1ccc(NC(=O)CSc2nc3c(c(=O)n2CC)SC(C)C3)cc1 (stereo not given) | active: 9.28 µM | 
CC(=O)OC(C(=O)NC1CCCCC1)c1ccc(C#N)cc1 (stereo not given) | inconclusive: 13.1 µM [inhibitor, single point] | 
CC(=O)Oc1ccc(-c2cccc(C(=O)NCC(=O)O)c2)cc1 | inconclusive: 4.15 µM [inhibitor, partial curve, poor fit] | 
Cc1ccc(C(=O)N/N=C/c2ccc([N+](=O)[O-])s2)cc1 |  | inactive: 24.1%
COc1ccc(C(CNC(=O)c2ccc(C)c(S(=O)(=O)Nc3ccccc3OC)c2)N2CCCC2)cc1 (stereo not given) | inconclusive: 18.5 µM [inhibitor, single point] | 
CCOc1ccc(CNC(=O)c2ccc(Sc3ccc(Cl)cc3)c(NC(C)=O)c2)cc1 | inconclusive: 4.15 µM [inhibitor, single point] | 
COc1cc(/C=C(\C#N)c2ccccn2)ccc1OCc1ccccc1Cl | active: 2.33 µM | 
CCOc1ccc(NC(=O)/C=C/c2ccccc2)c([N+](=O)[O-])c1 | active: 8.28 µM | 
O=C(COc1ccc(F)cc1Cl)Nc1nc(-c2ccccn2)cs1 | active: 13.1 µM | 
Cc1cc(NC(=O)Nc2c[nH]c(=O)[nH]c2=O)ccc1Br |  | inactive: 40.8%
Cc1[nH]c2c(Br)cccc2c1[C@H]1[C@@H](CC#N)C1(C)C | inconclusive: 18.5 µM [inhibitor, partial curve, poor fit] | 
O=[N+]([O-])C(=c1ccc2c(c1)N1C3=C(CCCC3)CC3CCCCC31N=2)[N+](=O)[O-] (stereo not given) | inconclusive: 3.7 µM [inhibitor, partial curve, poor fit] | 
CCCCOc1ccc(C(=O)N/C(=C\c2ccc([N+](=O)[O-])cc2)C(=O)OCc2ccco2)cc1 | inconclusive: 18.5 µM [inhibitor, single point] | 
Cc1cc(NC(=O)CCC(=O)N(CC(=O)NC2CCCC2)c2ccc(F)c(Cl)c2)no1 |  | inactive: 14.6%
COc1ccc(NC(=O)C2CCCO2)c(OC)c1 (stereo not given) | inconclusive: 13.1 µM [inhibitor, single point] | 

An excerpt from above in order of heavy-atom count, largest number first:
Structure (SMILES) | Potency | activity change, negative = inhibition
CCOc1ccc(CNC(=O)c2ccc(Sc3ccc(Cl)cc3)c(NC(C)=O)c2)cc1 | inconclusive: 4.15 µM [inhibitor, single point] | 
Cc1[nH]c2c(Br)cccc2c1[C@H]1[C@@H](CC#N)C1(C)C | inconclusive: 18.5 µM [inhibitor, partial curve, poor fit] | 
Oc1ccc(Cl)cc1C=Nc1ccc(Br)cc1 | inconclusive: 18.5 µM [inhibitor, single point] | 

Next part:

Structure (SMILES) | Potency | activity change, negative = inhibition
c1ccc(C2CSc3ccccc3N2)cc1 (stereo not given) |  | inactive: 163%
O=C(Nc1ccccc1F)N1CCc2ccccc2C1 | inconclusive: 13.1 µM [inhibitor, single point] | 
Cc1cc(N2CCOCC2)c(F)cc1C(=O)c1ccccc1 | inconclusive: 20.8 µM [inhibitor, partial curve, poor fit] | 
COc1ccc(C(=O)N[C@H](C(=O)OCn2nnc3ccccc3c2=O)C(C)C)cc1 |  | inactive: 32.3%
N#CC1=C(Nc2ccccc2Cl)SC(c2ccccc2O)NC1=O (stereo not given) |  | inactive: -6.65%
CC(C)(C)OC(=O)Nc1ccc([C@@H](NC(=O)OC(C)(C)C)C(=O)OC(C)(C)C)cc1 | inconclusive: 5.86 µM [inhibitor, single point] | 
CC(C)COC(=O)C1C2C=CC3(CN(C(C)c4ccc(Br)cc4)C(=O)C13)O2 (stereo not given) | active: 6.57 µM | 
CCCCN(CCCC)CCCNC(=O)C1CC(c2ccc(C(F)(F)F)cc2)=NO1 (stereo not given) | inconclusive: 18.5 µM [inhibitor, single point] | 
CS(=O)(=O)NN1C(=O)c2ccccc2NC1c1cccs1 (stereo not given) |  | inactive: -21.2%
O=C(c1ccccc1)c1cc([N+](=O)[O-])ccc1N1CCOCC1 | inconclusive: 11.7 µM [inhibitor, single point] | 
CCCC(=O)Nc1nc2ccc(NC(=O)c3c(F)c(F)c(OC)c(F)c3F)cc2s1 | inconclusive: 9.28 µM [inhibitor, single point] | 
N#CCCN(C(=O)COC(=O)CNC(=O)C12CC3CC(CC(C3)C1)C2)c1ccccc1 | inconclusive: 13.1 µM [inhibitor, partial curve, poor fit] | 
O=[N+]([O-])c1ccccc1/C=N/N1CCN(c2ccc(Cl)cc2)CC1 | inconclusive: 13.1 µM [inhibitor, partial curve, poor fit] | 
COc1cc(C(C)=O)ccc1OCC(=O)Nc1ccc2nc(C)sc2c1 | inconclusive: 10.4 µM [inhibitor, single point] | 
O=C(O)CCC(=O)N1N=C(c2ccc(Br)cc2)CC1c1ccc(Br)cc1 (stereo not given) | inconclusive: 18.5 µM [inhibitor, single point] | 
Cc1cc(N2CCN(c3ccc(F)cc3)CC2)nc2cc(O)ccc12 | active: 7.38 µM | 
CCOC(=O)c1c(C)[nH]c(C)c1C(=O)COC(=O)/C=C/c1cccc(C(F)(F)F)c1 | inconclusive: 18.5 µM [inhibitor, single point] | 
Cc1sc2ncnc(NCC(C)(C)N3CCOCC3)c2c1C | inconclusive: 8.28 µM [inhibitor, partial curve, poor fit] | 
Cc1cc(Oc2cc(NN3CCCCC3)c([N+](=O)[O-])cc2[N+](=O)[O-])c(C(=O)c2ccccc2)cc1Cl | active: 8.28 µM | 
CCOC(=O)C1CCN(C(=O)c2ccccc2NC(=O)c2ccc(Cl)cc2)CC1 | inconclusive: 14.7 µM [inhibitor, partial curve, poor fit] | 
Cc1ccc(C(NC(=O)C2CCCCC2)c2c(O)ccc3ccccc23)cc1 (stereo not given) | inconclusive: 18.5 µM [inhibitor, single point] | 
COc1cccc(CN(C)C(=O)CCc2nnc(-c3ccsc3)o2)c1 | inconclusive: 1.85 µM [inhibitor, partial curve, poor fit] | 
